# PubChem BioAssay AID1259308 | NCATS | 2017
# Screen: 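Candidate targets for better recombinant protein yield in mammalian cells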 (primary screen)
# System: human HEK293 embryonic kidney cells stably expressing firefly luciferase (HEK-CMV-Luc2-Hygro)
# Knock-down reagent: single siRNA against human genes, 0.8 pmol siRNA per well
# Time to read-out: 72 h
# Read-out: 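Luciferase light (ONE-Glo) measured on one replicate plate set and viability (CellTiter-Glo) on the other, scaled to a negative control siRNA, with robust z-scores and luciferase per cell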
# Scale: total luciferase, z-score and total luciferase, % of control: higher = more reporter protein produced; luciferase per cell, z-score: higher = more reporter output per viable cell; viable cells, % of control: higher = more viable cells
# Rule for the call: 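Active when the median/MAD z-score for overall luciferase is greater than 3; a gene was taken forward for validation with new siRNAs if at least two of its three siRNAs passed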
# Calls: active = raised luciferase; inactive = no rise
# Here is a random part of about 59,000 reagents tested. In the full data, about 1,510 (2.6%) got an active call. 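Calls use total luciferase alone and ignore viability, so some active siRNAs may act by altering cell number.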 The numbers tell different reagents against one gene apart.
Gene,siRNA no.,"total luciferase, z-score","total luciferase, % of control","luciferase per cell, z-score","viable cells, % of control",call
IL17REL (interleukin 17 receptor E like),1,1.41,110,0.753,101,inactive
IL17REL (interleukin 17 receptor E like),2,-1.41,53.8,-1.64,92.6,inactive
IL17REL (interleukin 17 receptor E like),3,7.29,227,3.88,91.4,active
GPRASP1 (G protein-coupled receptor associated sorting protein 1),1,-0.877,64.4,-0.718,87,inactive
GPRASP1 (G protein-coupled receptor associated sorting protein 1),2,0.748,96.8,1.15,79.8,inactive
GPRASP1 (G protein-coupled receptor associated sorting protein 1),3,0.329,88.4,-0.818,123,inactive
CD160 (CD160 molecule),1,1.14,105,2.06,68,inactive
CD160 (CD160 molecule),2,-0.0771,80.4,-0.345,98.3,inactive
CD160 (CD160 molecule),3,-1.74,47.3,-0.943,67.7,inactive
SELENBP1 (selenium binding protein 1),1,0.514,92.1,-0.277,111,inactive
SELENBP1 (selenium binding protein 1),2,0.275,87.4,0.348,89.1,inactive
SELENBP1 (selenium binding protein 1),3,0.331,88.5,-0.803,122,inactive
USP3 (ubiquitin specific peptidase 3),1,0.1,83.9,-0.302,101,inactive
USP3 (ubiquitin specific peptidase 3),2,-0.713,67.7,-0.902,95.9,inactive
USP3 (ubiquitin specific peptidase 3),3,0.641,94.6,0.756,86.7,inactive
PTBP1 (polypyrimidine tract binding protein 1),1,1.89,119,1.38,92.9,inactive
PTBP1 (polypyrimidine tract binding protein 1),2,0.489,91.6,-0.271,110,inactive
PTBP1 (polypyrimidine tract binding protein 1),3,1.15,105,0.669,98.2,inactive
UTP3 (UTP3 small subunit processome component),1,-1.91,43.9,-2.02,83.7,inactive
UTP3 (UTP3 small subunit processome component),2,1.61,114,2.47,66.5,inactive
UTP3 (UTP3 small subunit processome component),3,-1.16,58.8,-1.2,90,inactive
LPCAT2 (lysophosphatidylcholine acyltransferase 2),1,-0.00409,81.8,-0.307,99.1,inactive
LPCAT2 (lysophosphatidylcholine acyltransferase 2),2,1.86,119,1.91,80.2,inactive
LPCAT2 (lysophosphatidylcholine acyltransferase 2),3,-0.808,65.8,-0.556,85.2,inactive
TROAP (trophinin associated protein),1,-0.223,77.5,0.12,83.9,inactive
TROAP (trophinin associated protein),2,-0.762,66.7,-0.181,78.2,inactive
TROAP (trophinin associated protein),3,-0.859,64.8,-0.912,92.1,inactive
ICOS (inducible T cell costimulator),1,-2.64,29.5,-2.99,72.4,inactive
ICOS (inducible T cell costimulator),2,1.77,117,1.14,96.8,inactive
ICOS (inducible T cell costimulator),3,3.5,151,2.21,94.6,active
"UQCR11 (ubiquinol-cytochrome c reductase, complex III subunit XI)",1,-0.722,67.5,1.12,56.2,inactive
"UQCR11 (ubiquinol-cytochrome c reductase, complex III subunit XI)",2,0.103,83.9,-0.192,98.7,inactive
"UQCR11 (ubiquinol-cytochrome c reductase, complex III subunit XI)",3,1.47,111,1.85,76.4,inactive
RPL10AP3 (ribosomal protein L10a pseudogene 3),1,-0.304,75.8,-0.652,101,inactive
RPL10AP3 (ribosomal protein L10a pseudogene 3),2,-1.26,56.8,-0.898,80.4,inactive
RPL10AP3 (ribosomal protein L10a pseudogene 3),3,-0.692,68.1,-1.2,104,inactive
CXCR2 (C-X-C motif chemokine receptor 2),1,0.658,95,0.148,102,inactive
CXCR2 (C-X-C motif chemokine receptor 2),2,-0.0617,80.7,-0.71,109,inactive
CXCR2 (C-X-C motif chemokine receptor 2),3,-2.51,32,-3.46,88.9,inactive
CCNB1IP1 (cyclin B1 interacting protein 1),1,0.557,93,0.627,88.1,inactive
CCNB1IP1 (cyclin B1 interacting protein 1),2,-1.01,61.8,-1.2,94.6,inactive
CCNB1IP1 (cyclin B1 interacting protein 1),3,0.545,92.7,0.21,98,inactive
APOBEC4,1,-0.964,62.7,-0.508,80.1,inactive
APOBEC4,2,1.37,109,1.48,82.6,inactive
APOBEC4,3,0.516,92.2,0.883,81.6,inactive
TANGO6 (transport and golgi organization 6 homolog),1,0.701,95.8,0.362,97.3,inactive
TANGO6 (transport and golgi organization 6 homolog),2,0.0635,83.1,-0.693,112,inactive
TANGO6 (transport and golgi organization 6 homolog),3,0.717,96.1,0.6,91.7,inactive
CD53 (CD53 molecule),1,0.658,95,0.259,99.1,inactive
CD53 (CD53 molecule),2,0.827,98.3,0.246,103,inactive
CD53 (CD53 molecule),3,-0.4,73.9,0.403,74.3,inactive
HTR1A (5-hydroxytryptamine receptor 1A),1,0.126,84.4,-0.467,107,inactive
HTR1A (5-hydroxytryptamine receptor 1A),2,1.25,107,1.43,81.8,inactive
HTR1A (5-hydroxytryptamine receptor 1A),3,-0.537,71.2,-1.07,105,inactive
"PIM3 (Pim-3 proto-oncogene, serine/threonine kinase)",1,0.902,99.8,0.37,101,inactive
"PIM3 (Pim-3 proto-oncogene, serine/threonine kinase)",2,-0.222,77.5,-0.0297,87.2,inactive
"PIM3 (Pim-3 proto-oncogene, serine/threonine kinase)",3,-1.61,49.9,-1.97,93.7,inactive
TARP (TCR gamma alternate reading frame protein),1,-1.1,60,0.555,57.9,inactive
TARP (TCR gamma alternate reading frame protein),2,-1.22,57.7,0.0985,62.8,inactive
TARP (TCR gamma alternate reading frame protein),3,1.24,107,2.26,65.7,inactive
TNRC6B (trinucleotide repeat containing adaptor 6B),1,0.655,94.9,-0.324,116,inactive
TNRC6B (trinucleotide repeat containing adaptor 6B),2,-0.305,75.8,-0.864,106,inactive
TNRC6B (trinucleotide repeat containing adaptor 6B),3,0.288,87.6,0.48,86.3,inactive
CYYR1 (cysteine and tyrosine rich 1),1,1.38,109,1.41,84.4,inactive
CYYR1 (cysteine and tyrosine rich 1),2,0.886,99.5,1.13,82.5,inactive
CYYR1 (cysteine and tyrosine rich 1),3,0.337,88.6,-0.148,103,inactive
WDR91 (WD repeat domain 91),1,0.581,93.4,0.0674,103,inactive
WDR91 (WD repeat domain 91),2,0.56,93,0.528,90.5,inactive
WDR91 (WD repeat domain 91),3,0.0576,83,-0.509,106,inactive
CARD10 (caspase recruitment domain family member 10),1,-0.514,71.7,-0.503,91.4,inactive
CARD10 (caspase recruitment domain family member 10),2,-0.0758,80.4,0.314,82.7,inactive
CARD10 (caspase recruitment domain family member 10),3,1.73,116,1.67,83.6,inactive
UBB (ubiquitin B),1,3.08,143,5.32,39.4,active
UBB (ubiquitin B),2,0.933,100,0.388,101,inactive
UBB (ubiquitin B),3,1.14,105,0.365,106,inactive

Entries listed so far whose gene name begins with W or w (3):
Gene,siRNA no.,"total luciferase, z-score","total luciferase, % of control","luciferase per cell, z-score","viable cells, % of control",call
WDR91 (WD repeat domain 91),1,0.581,93.4,0.0674,103,inactive
WDR91 (WD repeat domain 91),2,0.56,93,0.528,90.5,inactive
WDR91 (WD repeat domain 91),3,0.0576,83,-0.509,106,inactive
